Earlier results in patent US20130129720A1, “Combination Cancer Therapies with Wortmannin Analogs” (ONCOTHYREON INC., priority 2010, published 2013).
For at least one compound, name, drawing or mass did not settle the structure.

Test system: PI-3K
Conditions: cited from earlier work

COC[C@H]1OC(=O)c2coc3c2[C@@]1(C)C1=C(C3=O)[C@@H]2CCC(=O)[C@@]2(C)C[C@H]1OC(C)=O [Wortmannin]
potency as PI-3K inhibitor: nanomolar inhibitor
inhibition of PI-3K isoforms p110α, p110β, p110δ, p110γ (most isoforms): inhibited equally
